Experimental data as given in the supplement of paper PMC7666118.
The list shows a part of the results.

Protein sequences, listed by entry. Tags and fused reporters are not part of them. Lines headed by an entry give the natural chain unless they say otherwise; changes in a name come on top.
UniProt Q7L576: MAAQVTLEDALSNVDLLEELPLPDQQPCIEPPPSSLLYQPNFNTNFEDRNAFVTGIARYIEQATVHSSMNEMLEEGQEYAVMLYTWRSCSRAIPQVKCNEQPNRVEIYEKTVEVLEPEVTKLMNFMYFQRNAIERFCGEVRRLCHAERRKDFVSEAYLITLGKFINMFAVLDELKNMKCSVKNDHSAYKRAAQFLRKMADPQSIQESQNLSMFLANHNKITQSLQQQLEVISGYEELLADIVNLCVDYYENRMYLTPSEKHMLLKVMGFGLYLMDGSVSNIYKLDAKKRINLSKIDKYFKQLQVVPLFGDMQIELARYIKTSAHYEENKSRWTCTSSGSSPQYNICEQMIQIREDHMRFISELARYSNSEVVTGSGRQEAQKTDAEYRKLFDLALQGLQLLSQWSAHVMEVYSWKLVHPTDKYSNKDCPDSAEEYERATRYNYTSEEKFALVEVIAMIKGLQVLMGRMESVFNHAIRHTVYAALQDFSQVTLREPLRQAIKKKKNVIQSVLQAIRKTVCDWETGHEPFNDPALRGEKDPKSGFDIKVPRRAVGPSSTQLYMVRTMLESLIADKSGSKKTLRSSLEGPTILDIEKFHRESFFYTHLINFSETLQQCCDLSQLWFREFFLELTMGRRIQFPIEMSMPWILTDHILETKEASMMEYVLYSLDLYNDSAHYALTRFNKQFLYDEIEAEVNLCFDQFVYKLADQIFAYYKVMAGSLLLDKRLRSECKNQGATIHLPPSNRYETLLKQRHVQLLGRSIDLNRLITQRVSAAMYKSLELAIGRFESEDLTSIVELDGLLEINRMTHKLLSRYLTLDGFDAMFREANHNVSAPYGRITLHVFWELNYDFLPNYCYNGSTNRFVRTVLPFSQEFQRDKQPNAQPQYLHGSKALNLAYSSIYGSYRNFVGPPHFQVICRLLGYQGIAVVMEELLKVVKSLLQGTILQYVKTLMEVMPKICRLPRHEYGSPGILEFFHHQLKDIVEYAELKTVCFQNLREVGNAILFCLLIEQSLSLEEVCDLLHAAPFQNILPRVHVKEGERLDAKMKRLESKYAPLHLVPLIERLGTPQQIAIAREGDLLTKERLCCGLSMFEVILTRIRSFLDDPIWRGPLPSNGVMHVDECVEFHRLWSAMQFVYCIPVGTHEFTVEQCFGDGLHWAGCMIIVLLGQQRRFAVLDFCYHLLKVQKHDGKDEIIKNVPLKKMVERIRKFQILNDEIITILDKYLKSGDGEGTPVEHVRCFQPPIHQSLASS
UniProt O76096: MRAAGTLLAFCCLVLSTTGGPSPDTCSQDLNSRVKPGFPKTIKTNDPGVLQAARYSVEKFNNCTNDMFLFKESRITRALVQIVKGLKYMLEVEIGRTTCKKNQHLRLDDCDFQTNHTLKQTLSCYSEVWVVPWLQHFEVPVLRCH
UniProt O43583: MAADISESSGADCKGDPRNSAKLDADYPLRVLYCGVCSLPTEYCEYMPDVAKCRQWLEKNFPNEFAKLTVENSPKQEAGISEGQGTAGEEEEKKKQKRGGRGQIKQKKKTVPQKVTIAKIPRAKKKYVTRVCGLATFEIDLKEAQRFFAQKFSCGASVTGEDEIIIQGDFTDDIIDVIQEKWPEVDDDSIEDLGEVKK
UniProt P08574: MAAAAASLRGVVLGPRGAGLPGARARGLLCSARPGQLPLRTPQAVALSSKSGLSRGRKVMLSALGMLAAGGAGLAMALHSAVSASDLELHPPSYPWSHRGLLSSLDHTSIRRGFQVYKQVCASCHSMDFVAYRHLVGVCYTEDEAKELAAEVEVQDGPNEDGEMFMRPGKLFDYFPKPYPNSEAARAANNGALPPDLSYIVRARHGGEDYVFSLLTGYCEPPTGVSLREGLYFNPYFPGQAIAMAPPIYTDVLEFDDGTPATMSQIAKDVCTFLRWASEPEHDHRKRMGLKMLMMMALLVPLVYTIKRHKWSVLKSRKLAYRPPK
UniProt Q96DA6: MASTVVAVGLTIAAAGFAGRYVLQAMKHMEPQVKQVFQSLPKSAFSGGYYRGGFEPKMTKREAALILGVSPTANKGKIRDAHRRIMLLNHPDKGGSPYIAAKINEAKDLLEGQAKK
UniProt Q9NPI6: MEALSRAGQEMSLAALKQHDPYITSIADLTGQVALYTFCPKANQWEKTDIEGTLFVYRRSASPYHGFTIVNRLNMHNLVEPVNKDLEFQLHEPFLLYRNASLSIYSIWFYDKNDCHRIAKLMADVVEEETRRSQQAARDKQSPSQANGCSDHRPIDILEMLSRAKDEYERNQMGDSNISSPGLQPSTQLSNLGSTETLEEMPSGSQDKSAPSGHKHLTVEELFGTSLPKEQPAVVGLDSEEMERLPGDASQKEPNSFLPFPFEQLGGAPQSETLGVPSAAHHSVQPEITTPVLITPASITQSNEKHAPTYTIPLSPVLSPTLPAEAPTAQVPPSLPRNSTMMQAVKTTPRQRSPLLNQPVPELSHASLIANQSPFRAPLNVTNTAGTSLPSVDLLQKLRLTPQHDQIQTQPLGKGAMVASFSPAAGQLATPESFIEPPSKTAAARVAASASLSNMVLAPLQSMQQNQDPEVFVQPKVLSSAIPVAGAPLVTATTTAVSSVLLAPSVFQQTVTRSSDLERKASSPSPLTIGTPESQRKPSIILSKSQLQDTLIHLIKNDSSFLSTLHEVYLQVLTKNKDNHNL
UniProt O60884: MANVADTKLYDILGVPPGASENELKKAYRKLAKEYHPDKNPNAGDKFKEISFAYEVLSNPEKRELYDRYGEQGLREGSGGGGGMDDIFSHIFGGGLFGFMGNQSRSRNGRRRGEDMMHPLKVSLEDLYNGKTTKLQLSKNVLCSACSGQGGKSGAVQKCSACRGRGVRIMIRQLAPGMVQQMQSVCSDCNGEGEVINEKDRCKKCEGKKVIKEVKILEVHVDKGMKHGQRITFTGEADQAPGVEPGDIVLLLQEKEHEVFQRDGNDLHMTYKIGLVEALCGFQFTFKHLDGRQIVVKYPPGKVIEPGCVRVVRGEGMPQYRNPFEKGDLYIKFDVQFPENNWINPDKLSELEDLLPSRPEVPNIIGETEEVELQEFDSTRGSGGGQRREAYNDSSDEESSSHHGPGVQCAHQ
UniProt P26196: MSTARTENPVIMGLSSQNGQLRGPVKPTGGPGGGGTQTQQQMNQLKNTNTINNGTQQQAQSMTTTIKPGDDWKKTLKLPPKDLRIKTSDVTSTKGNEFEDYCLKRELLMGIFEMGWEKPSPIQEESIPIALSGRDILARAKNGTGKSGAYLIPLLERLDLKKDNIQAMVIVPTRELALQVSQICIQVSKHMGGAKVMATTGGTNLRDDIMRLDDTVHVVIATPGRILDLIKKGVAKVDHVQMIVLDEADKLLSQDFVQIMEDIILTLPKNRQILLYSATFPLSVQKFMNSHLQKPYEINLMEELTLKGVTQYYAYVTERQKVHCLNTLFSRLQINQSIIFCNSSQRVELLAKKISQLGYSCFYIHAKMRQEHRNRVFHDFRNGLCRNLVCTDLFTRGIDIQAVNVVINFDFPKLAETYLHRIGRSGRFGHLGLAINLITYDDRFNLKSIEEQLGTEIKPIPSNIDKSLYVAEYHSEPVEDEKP
UniProt Q8IX18: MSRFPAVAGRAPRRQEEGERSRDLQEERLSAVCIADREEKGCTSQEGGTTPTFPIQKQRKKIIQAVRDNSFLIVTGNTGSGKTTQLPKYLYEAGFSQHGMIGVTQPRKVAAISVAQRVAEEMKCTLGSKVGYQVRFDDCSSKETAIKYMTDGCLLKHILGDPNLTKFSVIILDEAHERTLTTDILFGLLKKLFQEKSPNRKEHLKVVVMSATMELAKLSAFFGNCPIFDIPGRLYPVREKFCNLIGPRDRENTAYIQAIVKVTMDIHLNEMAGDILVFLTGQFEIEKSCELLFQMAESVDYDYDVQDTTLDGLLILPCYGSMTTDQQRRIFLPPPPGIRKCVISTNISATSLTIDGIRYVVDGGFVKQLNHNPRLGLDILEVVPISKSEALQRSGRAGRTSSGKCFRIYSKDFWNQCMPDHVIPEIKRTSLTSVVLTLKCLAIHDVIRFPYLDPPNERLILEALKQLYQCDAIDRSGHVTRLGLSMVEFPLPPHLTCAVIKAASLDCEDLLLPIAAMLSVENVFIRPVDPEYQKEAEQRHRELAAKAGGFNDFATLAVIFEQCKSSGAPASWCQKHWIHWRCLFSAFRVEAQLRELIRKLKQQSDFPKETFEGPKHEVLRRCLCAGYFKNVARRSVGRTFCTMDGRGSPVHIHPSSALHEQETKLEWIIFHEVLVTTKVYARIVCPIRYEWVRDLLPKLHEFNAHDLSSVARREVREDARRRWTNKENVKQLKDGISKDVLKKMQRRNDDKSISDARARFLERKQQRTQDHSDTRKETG
UniProt Q9NTM9: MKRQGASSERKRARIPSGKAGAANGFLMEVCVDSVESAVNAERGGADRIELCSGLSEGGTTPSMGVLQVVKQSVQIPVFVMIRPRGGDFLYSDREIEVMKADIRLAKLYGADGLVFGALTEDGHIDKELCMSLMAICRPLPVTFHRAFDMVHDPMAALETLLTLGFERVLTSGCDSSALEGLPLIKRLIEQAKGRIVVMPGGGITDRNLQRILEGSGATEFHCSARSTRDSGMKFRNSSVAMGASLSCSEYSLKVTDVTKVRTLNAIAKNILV
UniProt O00399, whole entry: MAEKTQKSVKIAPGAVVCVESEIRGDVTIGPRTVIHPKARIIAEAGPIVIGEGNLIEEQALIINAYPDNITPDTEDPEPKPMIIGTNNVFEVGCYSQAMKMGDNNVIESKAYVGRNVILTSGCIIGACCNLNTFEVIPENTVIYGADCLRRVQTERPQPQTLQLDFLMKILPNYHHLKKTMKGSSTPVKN
UniProt Q8TDD1, whole entry: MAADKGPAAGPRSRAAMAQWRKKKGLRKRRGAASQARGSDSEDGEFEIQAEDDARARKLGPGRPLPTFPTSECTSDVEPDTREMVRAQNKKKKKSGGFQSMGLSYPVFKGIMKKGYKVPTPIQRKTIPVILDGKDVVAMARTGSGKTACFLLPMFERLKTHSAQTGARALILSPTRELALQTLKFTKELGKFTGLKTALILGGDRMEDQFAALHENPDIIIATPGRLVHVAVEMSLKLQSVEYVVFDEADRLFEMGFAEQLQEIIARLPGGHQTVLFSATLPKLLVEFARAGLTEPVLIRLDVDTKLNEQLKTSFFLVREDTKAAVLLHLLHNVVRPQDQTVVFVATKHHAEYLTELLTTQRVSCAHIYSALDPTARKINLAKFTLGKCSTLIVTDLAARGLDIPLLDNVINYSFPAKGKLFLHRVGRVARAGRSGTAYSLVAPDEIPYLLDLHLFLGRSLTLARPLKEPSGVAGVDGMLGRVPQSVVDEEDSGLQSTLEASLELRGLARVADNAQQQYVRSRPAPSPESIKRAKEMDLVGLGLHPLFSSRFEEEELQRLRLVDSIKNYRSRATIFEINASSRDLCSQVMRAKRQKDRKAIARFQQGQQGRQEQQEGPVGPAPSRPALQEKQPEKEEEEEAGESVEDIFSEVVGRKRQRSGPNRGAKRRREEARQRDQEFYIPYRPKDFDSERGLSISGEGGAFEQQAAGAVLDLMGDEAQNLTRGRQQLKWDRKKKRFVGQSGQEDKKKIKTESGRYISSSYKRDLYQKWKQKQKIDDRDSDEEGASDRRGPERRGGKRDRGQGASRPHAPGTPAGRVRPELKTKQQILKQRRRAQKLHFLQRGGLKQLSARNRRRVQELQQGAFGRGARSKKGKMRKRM
UniProt Q9Y5B0: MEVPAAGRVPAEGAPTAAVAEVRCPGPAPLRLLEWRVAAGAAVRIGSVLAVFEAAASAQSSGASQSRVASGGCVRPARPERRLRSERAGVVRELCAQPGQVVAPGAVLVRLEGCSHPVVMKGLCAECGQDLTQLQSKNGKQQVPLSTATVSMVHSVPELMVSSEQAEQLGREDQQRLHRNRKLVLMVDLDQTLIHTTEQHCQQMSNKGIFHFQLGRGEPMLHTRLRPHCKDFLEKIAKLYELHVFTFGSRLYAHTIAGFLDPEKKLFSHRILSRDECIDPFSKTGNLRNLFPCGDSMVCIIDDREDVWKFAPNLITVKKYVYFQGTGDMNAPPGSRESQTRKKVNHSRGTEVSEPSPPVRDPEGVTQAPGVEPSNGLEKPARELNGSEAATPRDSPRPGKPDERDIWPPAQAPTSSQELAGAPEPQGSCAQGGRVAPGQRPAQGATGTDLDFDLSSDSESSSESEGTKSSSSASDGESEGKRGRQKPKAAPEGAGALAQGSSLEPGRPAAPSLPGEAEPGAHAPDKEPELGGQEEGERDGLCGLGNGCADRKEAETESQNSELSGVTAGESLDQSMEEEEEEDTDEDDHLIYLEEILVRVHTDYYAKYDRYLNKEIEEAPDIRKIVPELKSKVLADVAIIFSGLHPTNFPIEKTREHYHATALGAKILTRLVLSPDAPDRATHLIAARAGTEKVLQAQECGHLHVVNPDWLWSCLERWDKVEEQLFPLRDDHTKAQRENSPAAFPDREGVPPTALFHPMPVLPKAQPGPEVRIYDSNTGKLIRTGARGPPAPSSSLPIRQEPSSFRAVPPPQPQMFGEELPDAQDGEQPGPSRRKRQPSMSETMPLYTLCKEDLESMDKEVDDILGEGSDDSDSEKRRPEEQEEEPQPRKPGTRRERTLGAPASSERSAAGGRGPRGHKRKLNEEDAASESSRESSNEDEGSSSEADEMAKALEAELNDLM

compound: COc1ccc(Cn2ccc3cc(C)c(C(=O)NO)cc32)cc1; experiment: dose-dependent thermal stabilisation call (2D-TPP, DLPTP, 10% FDR) (binary (1 = stabilised)); higher = stabilised by the compound; details: system: HL-60 intact cells; concentration range 0.04-10 µM
Description: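 2D thermal proteome profiling in intact HL-60 cells treated with BRD-3811 (0, 0.04, 0.29, 2, 10 uM) for 90 min at 37 C, then heated 3 min at one of 12 temperatures (42-63.9 C). Soluble protein was quantified by TMT10 MS. The value is the DLPTP call of the paper: dose-dependent thermal stabilisation over all temperatures at 10% FDR (F-test of a dose-response against a flat model); one experiment, one call per tested protein.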

Target | dose-dependent thermal stabilisation call
CYFIP1 (UniProt Q7L576) | inactive: 0
CST7 (UniProt O76096) | inactive: 0
DENR (UniProt O43583) | inactive: 0
DNM1L (UniProt O00429) | inactive: 0
CSTF2 (UniProt P33240) | inactive: 0
CUL4B (UniProt Q13620) | inactive: 0
CYC1 (UniProt P08574) | inactive: 0
DNAJC19 (UniProt Q96DA6) | inactive: 0
DHX36 (UniProt Q9H2U1) | inactive: 0
DHX57 (UniProt Q6P158) | inactive: 0
DCP1A (UniProt Q9NPI6) | inactive: 0
DFFA (UniProt O00273) | inactive: 0
CTSZ (UniProt Q9UBR2) | inactive: 0
DNAJA2 (UniProt O60884) | inactive: 0
CTSD (UniProt P07339) | inactive: 0
DOHH (UniProt Q9BU89) | inactive: 0
DNMT1 (UniProt P26358) | inactive: 0
CUL2 (UniProt Q13617) | inactive: 0
DPYD (UniProt Q12882) | inactive: 0
DAAM1 (UniProt Q9Y4D1) | inactive: 0

Fetched one by one from the list above, two records:
Target | dose-dependent thermal stabilisation call
DPYD (UniProt Q12882) | inactive: 0
CUL2 (UniProt Q13617) | inactive: 0

Remaining list, next part.

Target | dose-dependent thermal stabilisation call
CSTF3 (UniProt Q12996) | inactive: 0
DDX6 (UniProt P26196) | inactive: 0
DPH2 (UniProt Q9BQC3) | active: 1
DDX51 (UniProt Q8N8A6) | inactive: 0
DHRS7 (UniProt Q9Y394) | inactive: 0
DDX18 (UniProt Q9NVP1) | inactive: 0
CSRP2BP (UniProt Q9H8E8) | inactive: 0
CSE1L (UniProt P55060) | inactive: 0
DHX40 (UniProt Q8IX18) | inactive: 0
CUTC (UniProt Q9NTM9) | inactive: 0
DCTN6 (UniProt O00399) | inactive: 0
CYB5R4 (UniProt Q7L1T6) | inactive: 0
DDX54 (UniProt Q8TDD1) | inactive: 0
DDX19A (UniProt Q9NUU7) | inactive: 0
DKFZP686O24166 | inactive: 0
DICER1 (UniProt Q9UPY3) | inactive: 0
DHRS4 (UniProt Q9BTZ2) | inactive: 0
DNAJC25 (UniProt Q9H1X3) | inactive: 0
CTDP1 (UniProt Q9Y5B0) | inactive: 0
DOK3 (UniProt Q7L591) | inactive: 0
